The nature of this assay: Downregulation of DUX4 expression in facioscapulohumeral muscular dystrophy (FSHD) affected human embryonic stem cell (hESC)-derived skeletal myoblasts and measured by immunocytochemistry analysis. To be noted: Myoblast. It is filed as functional, cell-based.

In turn, `Cc1ccc(NC(=O)c2ccc(CN3CCN(C)CC3)cc2)cc1Nc1nccc(-c2cccnc2)n1` [IMATINIB] came in with an EC50 of 380 µM.

One may read the EC50 as the midpoint of the concentration-response curve. A high value points to a less potent agent.

These data come from ChEMBL document CHEMBL5050828, “Inhibitors of DUX4 induction for regulation of muscle function” (2021).
